No constants are given. Whether binding was seen depends on the method and setting. Some entries that bind do so weakly or less than the wild type.
Target: T1, seq129.1_CID
T1 sequence (chain, biotinylated (in the yeast display FACS; site not stated)): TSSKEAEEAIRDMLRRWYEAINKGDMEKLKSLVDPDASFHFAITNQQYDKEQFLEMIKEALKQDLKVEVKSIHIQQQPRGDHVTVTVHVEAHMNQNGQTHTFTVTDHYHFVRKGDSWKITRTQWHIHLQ
Assay: size-exclusion chromatography, 1 µM each protein, with/without 10 µM cortisol

B1: mini11 (designed binder)
chain: MSSASTLVKTFSLCMEALSIEDPEKREEVYEKARKLAEENNDPAALFLVESIKKQHEQSSSLEHHHHHH
For B1, the binding was “binds”.
